Test results from PubChem BioAssay AID624415 (National Center for Advancing Translational Sciences (NCATS), 2012).
The whole screen tested about 390,000 compounds, of which about 60 (0.02%) were called active. Inconclusive means that the source gave no clear call. Such entries were picked first, then a sample of the others. Rule as the data show it: active = activity change below about -50%; inconclusive = between about -30% and that limit; inactive = weaker than that.

Protein sequences, listed by entry. Tags and fused reporters are not part of them.
UniProt Q9GZU1, whole entry, looked up: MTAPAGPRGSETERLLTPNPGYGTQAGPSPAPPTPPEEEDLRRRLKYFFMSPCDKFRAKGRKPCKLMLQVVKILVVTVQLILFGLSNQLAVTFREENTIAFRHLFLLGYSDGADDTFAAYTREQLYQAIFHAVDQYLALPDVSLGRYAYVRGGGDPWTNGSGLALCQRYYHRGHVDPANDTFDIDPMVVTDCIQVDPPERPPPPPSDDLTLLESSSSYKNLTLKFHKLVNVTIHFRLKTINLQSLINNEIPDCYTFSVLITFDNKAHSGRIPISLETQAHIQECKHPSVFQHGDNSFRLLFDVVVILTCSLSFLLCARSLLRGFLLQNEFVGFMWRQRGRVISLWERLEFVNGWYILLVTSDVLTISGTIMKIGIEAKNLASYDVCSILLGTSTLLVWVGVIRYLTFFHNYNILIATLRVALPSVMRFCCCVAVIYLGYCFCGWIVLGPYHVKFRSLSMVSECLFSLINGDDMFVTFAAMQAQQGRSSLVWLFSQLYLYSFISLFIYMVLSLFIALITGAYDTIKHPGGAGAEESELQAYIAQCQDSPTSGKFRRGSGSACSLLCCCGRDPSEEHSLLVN

target: Mucolipin-1 (Homo sapiens) (UniProt Q9GZU1); assay: qHTS for Inhibitors of the Human Mucolipin Transient Receptor Potential 1 (TRPML1); details: TRPML1-inducible cells, Ca2+ dye fluorescence, FDSS; stronger effect = lower value; inhibition of EC80 agonist-evoked calcium signal;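 also: stimulus is agonist 54-4 at its EC80 concentration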
Method in brief: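 Tet-induced TRPML1-DL cells loaded with Ca8 no-wash calcium dye were read kinetically on FDSS. Compound addition was followed by EC80 agonist 54-4 (4 uM final); inhibition was read over 110 s.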
% is scaled to controls: 0 for no effect and ±100 for the full control effect.

Structure (SMILES) | activity change, negative = inhibition
C/C(CCc1ccc2c(c1)OCO2)=N\N=C(/N)SC1CC(=O)N(c2ccccc2F)C1=O (stereo not drawn) | inconclusive: -35.2%
Cc1cc(C(C)(C)C)cc(C)c1CC1=NCCN1 | inactive: -0.364%
COc1ccc(Nc2nc(N3CCOCC3)nc(N3CCOCC3)n2)cc1Cl | inactive: 14.3%
C[C@H]1CN([C@@H](C)CO)S(=O)(=O)c2ccc(Br)cc2O[C@@H]1CN(C)C(=O)c1cccnc1 | inconclusive: -33%
CC(=O)Nc1cccc(C(=O)/C=C/c2ccc(N(C)C)cc2)c1 | inconclusive: -32.2%
CC1(C)O[C@H]2[C@@H](O1)[C@@H](C(=O)Nc1cc(F)ccc1F)O[C@@H]1OC(C)(C)O[C@@H]12 | inconclusive: -30.6%
O=S1(=O)C[C@H](N2CCCC2)[C@@H](COCc2ccccc2)N1 | inconclusive: -31.9%
COCCN(CC(=O)Nc1cccc(C)c1C)C(=O)Cn1cnc2ccccc2c1=O | inconclusive: -30.8%
O=C1COCCOCCOCCOCC(=O)NCCN1 | inconclusive: -35.3%
N#Cc1ccc(CSc2nc(N)cc(N)n2)cc1 | inactive: -3.8%
COc1cc(C2NC(=O)CCC2[N+](=O)[O-])cc(Br)c1OC (stereo not drawn) | inconclusive: -31.5%
COc1cc2c(cc1N)-c1ccc(N)cc1C2=O | inactive: -1%
COc1ccc(NC(=O)CCC(=O)c2ccc(C(C)C)cc2)cc1 | inconclusive: -36.8%
CC(CNC(=O)c1ccc(Nc2nc3ccccc3n3nnnc23)cc1)c1ccccc1 (stereo not drawn) | inconclusive: -30.7%
O=C(Nc1ccon1)c1ccc(N2CCCCC2)c([N+](=O)[O-])c1 | inactive: -1.14%
N#CC1=C(N)C(C#N)(C#N)C(c2ccncc2)C2CN(C(=O)OCc3ccccc3)CC=C12 (stereo not drawn) | inactive: 8.26%
Cc1ncc(CN2CCCC(C(=O)Nc3ccc(-c4cccc(F)c4)cc3)C2)cn1 (stereo not drawn) | inconclusive: -31.3%
COc1ccc(-c2cc3c(=O)n(CC(=O)Nc4cc(C)ccc4C)ccn3n2)cc1 | inconclusive: -37.3%
CCCc1cc2c(cc1NC(=O)c1ccco1)OCO2 | inconclusive: -31.6%
Cc1ccc(Cl)c(OCC(=O)Nc2ccccc2C(=O)NC2CC2)c1 | inconclusive: -48.3%
CN(C)CC/C=C1/c2ccc(F)cc2Sc2ccc(Cl)cc21 | inactive: 0.92%
COc1ccccc1N(CC(=O)NCc1cccnc1)S(C)(=O)=O | inactive: -7.13%

Shown as labelled records: entries from further up
COc1cc(C2NC(=O)CCC2[N+](=O)[O-])cc(Br)c1OC (stereo not drawn)
  activity change, negative = inhibition: inconclusive: -31.5%
COc1cc2c(cc1N)-c1ccc(N)cc1C2=O
  activity change, negative = inhibition: inactive: -1%
COc1ccc(NC(=O)CCC(=O)c2ccc(C(C)C)cc2)cc1
  activity change, negative = inhibition: inconclusive: -36.8%
CC(CNC(=O)c1ccc(Nc2nc3ccccc3n3nnnc23)cc1)c1ccccc1 (stereo not drawn)
  activity change, negative = inhibition: inconclusive: -30.7%

Continued.

Structure (SMILES) | activity change, negative = inhibition
Cc1ccccc1CNC(=O)Nc1ccc2c(c1)N(C)C(=O)c1ccccc1S2 | inconclusive: -40.9%
O=C(NCCCn1ccnc1)c1cccc(S(=O)(=O)Nc2ccc(F)cc2)c1 | inactive: -8.51%
Cc1cc(NC(=O)CSc2nc(Cc3ccc(O)cc3)c(C)[nH]2)no1 | active: -54.4%
COc1ccc(Nc2ncnc3c2cnn3-c2ccccc2)cc1OC | inconclusive: -37.8%
Cc1ccc(Nc2ccc(N3CCN(C(=O)c4ccc([N+](=O)[O-])cc4)CC3)nn2)cc1 | inconclusive: -32.6%
Cc1ccc(S(=O)(=O)NCCc2csc(-c3cccc(F)c3)n2)cc1 | inconclusive: -34%
CCN1CCN(C(CC(C)C)c2nnnn2CS(=O)(=O)c2ccc(C)cc2)CC1 (stereo not drawn) | inactive: -10.3%
CCCCN(C=O)c1c(CC)nc2ccc(C(=O)N3CCN(c4ccccc4)CC3)cn12 | inconclusive: -34%
O=S(=O)(Nc1nc2ccccc2nc1N1CCN(c2ccccc2)CC1)c1ccc(F)cc1 | inactive: 37.9%
Cc1ccc(-c2noc(CSc3nnc(Cc4cccs4)n3-c3ccccc3)n2)cc1 | inactive: -0.389%
COc1cccc(-n2nnc(S(=O)(=O)c3ccc(C)cc3)c2N)c1 | inconclusive: -32%
O=C(N/C(=C\c1ccc(Cl)cc1)C(=O)N1CCOCC1)c1ccco1 | inactive: -14.3%
COc1cccc(Cn2c3ccc(NC(=O)CCc4ccc(F)cc4)cc3c(=O)n2C)c1 | inactive: 84.5%
O=C(CSc1nc(-c2ccc(F)cc2)cc(C(F)(F)F)n1)NCc1ccco1 | inconclusive: -35%
CN1CC2(C)OC(=O)C(Cl)=C2CC1c1ccccc1 (stereo not drawn) | inconclusive: -34.3%
CCN(CC)S(=O)(=O)c1ccc(NS(=O)(=O)c2ccc(F)cc2)cc1 | inconclusive: -35.9%
Cc1ccc2cccc(OCc3ccc(Br)cc3)c2n1 | inconclusive: -33.1%
C=C1CN(C(C(=O)OC)C(C)C)S(=O)(=O)c2ccc(F)cc21 (stereo not drawn) | inactive: 16.2%
COc1cccc(-c2ccc(=O)n(CC(=O)NCCN3CCOCC3)n2)c1 | active: -63.1%
CC(C)c1nnc(NC(=O)CCC(=O)N2CCN(c3ccc(F)cc3)CC2)s1 | inconclusive: -35.5%
CN(Cc1ccccc1)C(=O)c1cccc(NC(=O)c2nsc3ccccc23)c1 | inconclusive: -33%
CN(CCCOc1ccccc1Br)Cc1ccccc1 | inconclusive: -33%

Structure (SMILES) | activity change, negative = inhibition
COc1ccc(C(=O)Oc2cc(/C=N/NC(N)=S)ccc2OC)cc1 | inactive: 8.31%
COc1ccc(CCNC(=O)COc2ccc(S(=O)(=O)NC(C)C)cc2Cl)cc1OC | active: -60.6%
CSc1nc2c(c(=O)n1-c1ccc(F)cc1)SCC2 | inconclusive: -30.4%
COc1cc2c(cc1NC(=O)C(F)(F)F)-c1ccc(NC(=O)C(F)(F)F)cc1C2 | inactive: -11%
CCCCN(CC)CCNC(=O)C1c2cc(OC)c(OC)cc2C(=O)N2CCc3ccccc3C12 (stereo not drawn) | inactive: 35.1%
CCOC(=O)c1cc(-c2ccccc2)n(CC(=O)NCc2ccccc2)c1C | inconclusive: -34.5%
O=C1c2cc([N+](=O)[O-])ccc2-c2ncccc21 | active: -57%
CCN1CCN(c2cc(C)c3cc(NC(=O)/C=C/c4cccc(OC)c4OC)ccc3n2)CC1 | inconclusive: -31.4%
Cc1ccc(S(=O)(=O)Nc2ccccc2CNc2ncc(Br)cc2Br)cc1 | inactive: 55.8%
C=CCNc1nc(Nc2ccc([N+](=O)[O-])cc2)nc(OC)n1 | inconclusive: -34.6%
COc1ccc2[nH]c(=O)c(CN(C(=O)c3ccccn3)C3CCCCC3)cc2c1 | inconclusive: -32.5%
COc1cc(OC)cc(-c2c(-c3cccs3)c3cc(-c4ccc5[nH]ccc5c4)ccc3n2C)c1 | inactive: 11.8%
Cc1ccc(C(=O)NCC(=O)N(C)Cc2ccccc2C)s1 | inactive: -0.81%
CCCCOc1ccc(C(=O)N(Cc2ccco2)Cc2ccco2)cc1 | inconclusive: -33.1%
N#Cc1ncc(C(F)(F)F)cc1Sc1ccc(N)cc1 | inconclusive: -36.3%
CCCCN(C)CCCNC(=O)c1cc(-c2cccnc2)nc2ccccc12 | inconclusive: -43.2%
COc1cc2nc(/C=C/c3ccc(N(C)C)cc3)sc2cc1SC | inactive: -11.7%
COc1ccc(/C=C/c2nc(C#N)c(NCCc3ccccc3)o2)cc1OC | inconclusive: -38.5%
O=C(N/N=C/C=N/NC(=O)c1ccco1)c1ccco1 | inconclusive: -30.7%
COc1ccc(C(CCNCc2ccc(F)cc2)c2ccc(F)cc2)cc1 (stereo not drawn) | inactive: 34.6%
Cc1ccccc1Cc1c(C)nc2c(C(=O)NCc3ccco3)cnn2c1C | inconclusive: -30.3%
CC1CC(C)CN(CCOc2ccc(Br)cc2)C1 (stereo not drawn) | inconclusive: -40.1%

Two entries from above, set out differently:
Structure (SMILES)	activity change, negative = inhibition
CSc1nc2c(c(=O)n1-c1ccc(F)cc1)SCC2	inconclusive: -30.4%
CCOC(=O)c1cc(-c2ccccc2)n(CC(=O)NCc2ccccc2)c1C	inconclusive: -34.5%

Further compounds:

Structure (SMILES) | activity change, negative = inhibition
NC(=O)c1cc(NC(=O)c2cc(Br)c(Br)s2)cc(C(N)=O)c1 | inactive: 4.92%
CCOC(=O)N1CCC(N2CCCC(C(=O)c3cccc(OC(C)C)c3)C2)CC1 (stereo not drawn) | inactive: -13.9%
O=C(Cc1nc2ccccc2[nH]1)c1ccc([N+](=O)[O-])cc1 | inactive: -0.292%
Cc1nnc(NC(=O)CSc2nccn2Cc2ccc(F)cc2)s1 | inconclusive: -30.4%
Cc1cccc(OCc2ccc(-c3nc(C#N)c(NCc4cccnc4)o3)o2)c1 | inactive: -5.5%
Cn1c(=O)c(NCCc2ccccc2)c2c3c(cccc31)C(=O)c1ccccc1-2 | inactive: -11.4%
CC(=O)c1c(C)[nH]c(C(=O)Nc2ccccc2Cl)c1C | inconclusive: -39.5%
C=CCOc1ccc(CN(C)C(=O)CN2C(=O)c3ccccc3C2=O)cc1 | inconclusive: -39.3%
CN(C)c1ccc(N=Cc2nc(-c3ccccc3)oc2OC(=O)c2cccc(Cl)c2)cc1 | inactive: 9.21%
CCOC(=O)c1ccccc1NC(=O)COC(=O)CSCC(=O)Nc1cc(C)on1 | inconclusive: -31%
CCc1ccc(-n2c(=O)c3c4c(sc3n(Cc3ccccc3C#N)c2=O)CCC4)cc1 | inconclusive: -30.3%
O=C(/C=C\c1ccc2c(c1)OCO2)Nc1c2c(nn1-c1ccc(Cl)cc1)CSC2 | inconclusive: -32%
CC(C)(CN1CCNCC1)NS(=O)(=O)c1ccc(Cl)cc1 | inactive: 6.89%
O=C(NCc1ccccc1)c1cccc(COc2ccc3c(c2)CCC3)c1 | inactive: 41.1%
CC(C)(C)C(=O)CN1C(=O)NC2(CCCc3ccccc32)C1=O (stereo not drawn) | inconclusive: -34.9%
Cc1c(NC(=O)CN2C(=O)NC(C)(c3ccccc3)C2=O)c(=O)n(-c2ccccc2)n1C (stereo not drawn) | inactive: -8.07%
CC1CCN(C(=S)Nc2ccc(F)cc2)CC1 | inconclusive: -30.9%
CCOc1ccc(S(=O)(=O)N2CCN(C(=O)c3cccnc3)CC2)cc1 | inconclusive: -41.1%
O=C(Nc1ccc(Cl)cn1)C1CC1 | inconclusive: -37%
Cc1cc(-c2nnc(SCC(=O)Nc3nc(-c4ccccc4)cs3)o2)no1 | inconclusive: -31.7%
O=C(Nc1ccc2nc(SCC(=O)N3CCc4ccccc43)sc2c1)c1ccccc1 | inactive: -7.96%
CCCCN(C(=O)C1=COCCO1)c1c(N)n(CCCC)c(=O)[nH]c1=O | inconclusive: -37.1%
